± gives the standard deviation of the averaged measurements. Differences between knockout arms are mostly noise.
System: MDA-MB-231
Experiment: relative cell number vs DMSO control (72 h) (% of DMSO); higher = less growth inhibition (more cells)
Procedure: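 QMAP-Seq: a pool of 5 breast cancer cell lines (ZR-75-1, SKBR3, HCC-38, MDA-MB-231, BT-20), each carrying 12 doxycycline-inducible Cas9 sgRNA perturbations (11 knockouts plus non-targeting sgNT), was treated with compounds for 72 h at four 10-fold doses (10 nM-10 uM or 1 nM-1 uM range). Barcodes were amplified and sequenced, and cell number was interpolated from 293T spike-in standard curves. The result is expressed as % of the median of DMSO wells. Two biological replicates.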

CC(C)CC(=O)Nc1n[nH]c2c1CN(C(=O)C1CCN(C)CC1)C2(C)C
Conditions | relative cell number
sgRNA knockout: sgATF3, 10 nM | 109 ± 4.5
sgRNA knockout: sgATF3, 100 nM | 69.8 ± 11
sgRNA knockout: sgATF3, 1000 nM | 38.1 ± 5.8
sgRNA knockout: sgATF3, 10000 nM | 12.1 ± 1.3
sgRNA knockout: sgATF4, 10 nM | 137 ± 55
sgRNA knockout: sgATF4, 100 nM | 58.8 ± 3.8
sgRNA knockout: sgATF4, 1000 nM | 33.1 ± 1.4
sgRNA knockout: sgATF4, 10000 nM | 15.3 ± 4.4
sgRNA knockout: sgATF6, 10 nM | 101.2 ± 0.45
sgRNA knockout: sgATF6, 100 nM | 56.4 ± 6.9
sgRNA knockout: sgATF6, 1000 nM | 36.1 ± 2.3
sgRNA knockout: sgATF6, 10000 nM | 10.3 ± 3.1
sgRNA knockout: sgATG7, 10 nM | 133 ± 30
sgRNA knockout: sgATG7, 100 nM | 63.1 ± 4.5
sgRNA knockout: sgATG7, 1000 nM | 22.5 ± 3.9
sgRNA knockout: sgATG7, 10000 nM | 11 ± 0.52
sgRNA knockout: sgERN1, 10 nM | 84.2 ± 1.9
sgRNA knockout: sgERN1, 100 nM | 70.9 ± 11
sgRNA knockout: sgERN1, 1000 nM | 26.4 ± 9
sgRNA knockout: sgERN1, 10000 nM | 12.66 ± 0.11
sgRNA knockout: sgHSF1, 10 nM | 93.4 ± 15
sgRNA knockout: sgHSF1, 100 nM | 63.2 ± 6.3
sgRNA knockout: sgHSF1, 1000 nM | 26.7 ± 8.2
sgRNA knockout: sgHSF1, 10000 nM | 11.1 ± 3.5
sgRNA knockout: sgHSF2, 10 nM | 117 ± 2.7
sgRNA knockout: sgHSF2, 100 nM | 55 ± 5
sgRNA knockout: sgHSF2, 1000 nM | 32.7 ± 4.2
sgRNA knockout: sgHSF2, 10000 nM | 12.2 ± 0.54
sgRNA knockout: sgKEAP1, 10 nM | 122 ± 17
sgRNA knockout: sgKEAP1, 100 nM | 67.7 ± 3.9
sgRNA knockout: sgKEAP1, 1000 nM | 32.3 ± 3.4
sgRNA knockout: sgKEAP1, 10000 nM | 11.4 ± 3.1
sgRNA knockout: sgNFE2L2, 10 nM | 109 ± 21
sgRNA knockout: sgNFE2L2, 100 nM | 73.6 ± 27
sgRNA knockout: sgNFE2L2, 1000 nM | 32 ± 7.7
sgRNA knockout: sgNFE2L2, 10000 nM | 13.9 ± 3.5
sgRNA knockout: sgSLC35F2, 10 nM | 100 ± 46
sgRNA knockout: sgSLC35F2, 100 nM | 52.1 ± 6.3
sgRNA knockout: sgSLC35F2, 1000 nM | 31.3 ± 12
sgRNA knockout: sgSLC35F2, 10000 nM | 15.2 ± 1.1
sgRNA knockout: sgXBP1, 10 nM | 125 ± 51
sgRNA knockout: sgXBP1, 100 nM | 63.5 ± 4
sgRNA knockout: sgXBP1, 1000 nM | 38.3 ± 10
sgRNA knockout: sgXBP1, 10000 nM | 14.9 ± 6

Cc1c(Cn2c(C)nc3c(C(=O)O)cc(N4CCOCC4)cc32)cccc1C(F)(F)F
Conditions | relative cell number
sgRNA knockout: sgATF3, 10 nM | 112 ± 18
sgRNA knockout: sgATF3, 100 nM | 128 ± 5.2
sgRNA knockout: sgATF3, 1000 nM | 116 ± 33
sgRNA knockout: sgATF3, 10000 nM | 118 ± 23
sgRNA knockout: sgATF4, 10 nM | 93.7 ± 46
sgRNA knockout: sgATF4, 100 nM | 142 ± 59
sgRNA knockout: sgATF4, 1000 nM | 84.4 ± 4.5
sgRNA knockout: sgATF4, 10000 nM | 97.4 ± 7.6
sgRNA knockout: sgATF6, 10 nM | 105 ± 17
sgRNA knockout: sgATF6, 100 nM | 92 ± 39
sgRNA knockout: sgATF6, 1000 nM | 103 ± 6.6
sgRNA knockout: sgATF6, 10000 nM | 95 ± 1.1
sgRNA knockout: sgATG7, 10 nM | 85.5 ± 2.9
sgRNA knockout: sgATG7, 100 nM | 107 ± 3.1
sgRNA knockout: sgATG7, 1000 nM | 94.1 ± 11
sgRNA knockout: sgATG7, 10000 nM | 89.1 ± 6.4
sgRNA knockout: sgERN1, 10 nM | 86.6 ± 9.5
sgRNA knockout: sgERN1, 100 nM | 111 ± 8.5
sgRNA knockout: sgERN1, 1000 nM | 94.1 ± 24
sgRNA knockout: sgERN1, 10000 nM | 99.2 ± 7.8
sgRNA knockout: sgHSF1, 10 nM | 96.5 ± 13
sgRNA knockout: sgHSF1, 100 nM | 101 ± 4.9
sgRNA knockout: sgHSF1, 1000 nM | 119 ± 7
sgRNA knockout: sgHSF1, 10000 nM | 95.2 ± 17
sgRNA knockout: sgHSF2, 10 nM | 87.7 ± 13
sgRNA knockout: sgHSF2, 100 nM | 106 ± 2.6
sgRNA knockout: sgHSF2, 1000 nM | 123 ± 29
sgRNA knockout: sgHSF2, 10000 nM | 109 ± 18
sgRNA knockout: sgKEAP1, 10 nM | 115 ± 9.5
sgRNA knockout: sgKEAP1, 100 nM | 116.4 ± 0.15
sgRNA knockout: sgKEAP1, 1000 nM | 127 ± 5.4
sgRNA knockout: sgKEAP1, 10000 nM | 95.6 ± 16
sgRNA knockout: sgNFE2L2, 10 nM | 101 ± 15
sgRNA knockout: sgNFE2L2, 100 nM | 96.8 ± 3.4
sgRNA knockout: sgNFE2L2, 1000 nM | 104 ± 30
sgRNA knockout: sgNFE2L2, 10000 nM | 108 ± 12
sgRNA knockout: sgSLC35F2, 10 nM | 97.8 ± 36
sgRNA knockout: sgSLC35F2, 100 nM | 92.6 ± 10
sgRNA knockout: sgSLC35F2, 1000 nM | 87.48 ± 0.44
sgRNA knockout: sgSLC35F2, 10000 nM | 96.2 ± 13
sgRNA knockout: sgXBP1, 10 nM | 98.4 ± 10
sgRNA knockout: sgXBP1, 100 nM | 101 ± 18
sgRNA knockout: sgXBP1, 1000 nM | 117 ± 11
sgRNA knockout: sgXBP1, 10000 nM | 94.8 ± 12

Cc1cc(N2CCOCC2)cc2[nH]c(-c3c(NC[C@@H](O)c4cccc(Cl)c4)cc[nH]c3=O)nc12
Conditions | relative cell number
sgRNA knockout: sgATF3, 10 nM | 104 ± 11
sgRNA knockout: sgATF3, 100 nM | 83.13 ± 0.36
sgRNA knockout: sgATF3, 1000 nM | 87 ± 6.6
sgRNA knockout: sgATF3, 10000 nM | 24.1 ± 12
sgRNA knockout: sgATF4, 10 nM | 101 ± 16
sgRNA knockout: sgATF4, 100 nM | 106 ± 1.1
sgRNA knockout: sgATF4, 1000 nM | 88.2 ± 32
sgRNA knockout: sgATF4, 10000 nM | 30.8 ± 7.6
sgRNA knockout: sgATF6, 10 nM | 105 ± 19
sgRNA knockout: sgATF6, 100 nM | 73 ± 5.8
sgRNA knockout: sgATF6, 1000 nM | 80.2 ± 38
sgRNA knockout: sgATF6, 10000 nM | 30.5 ± 1.3
sgRNA knockout: sgATG7, 10 nM | 92.1 ± 3.3
sgRNA knockout: sgATG7, 100 nM | 76.8 ± 17
sgRNA knockout: sgATG7, 1000 nM | 98.2 ± 11
sgRNA knockout: sgATG7, 10000 nM | 26.6 ± 1
sgRNA knockout: sgERN1, 10 nM | 116 ± 0.14
sgRNA knockout: sgERN1, 100 nM | 78.2 ± 15
sgRNA knockout: sgERN1, 1000 nM | 82.2 ± 27
sgRNA knockout: sgERN1, 10000 nM | 30.1 ± 6.5
sgRNA knockout: sgHSF1, 10 nM | 89.6 ± 4.9
sgRNA knockout: sgHSF1, 100 nM | 65.8 ± 4.3
sgRNA knockout: sgHSF1, 1000 nM | 83.8 ± 14
sgRNA knockout: sgHSF1, 10000 nM | 25 ± 13
sgRNA knockout: sgHSF2, 10 nM | 109 ± 12
sgRNA knockout: sgHSF2, 100 nM | 69.1 ± 10
sgRNA knockout: sgHSF2, 1000 nM | 77.6 ± 1.2
sgRNA knockout: sgHSF2, 10000 nM | 35.2 ± 0.48
sgRNA knockout: sgKEAP1, 10 nM | 98.3 ± 23
sgRNA knockout: sgKEAP1, 100 nM | 79.9 ± 14
sgRNA knockout: sgKEAP1, 1000 nM | 82.8 ± 8.2
sgRNA knockout: sgKEAP1, 10000 nM | 36.6 ± 16
sgRNA knockout: sgNFE2L2, 10 nM | 102 ± 3.4
sgRNA knockout: sgNFE2L2, 100 nM | 83.7 ± 2.4
sgRNA knockout: sgNFE2L2, 1000 nM | 77.2 ± 18
sgRNA knockout: sgNFE2L2, 10000 nM | 30.6 ± 6.6
sgRNA knockout: sgSLC35F2, 10 nM | 92.3 ± 12
sgRNA knockout: sgSLC35F2, 100 nM | 95.2 ± 16
sgRNA knockout: sgSLC35F2, 1000 nM | 94.9 ± 13
sgRNA knockout: sgSLC35F2, 10000 nM | 23 ± 7.6
sgRNA knockout: sgXBP1, 10 nM | 80.1 ± 13
sgRNA knockout: sgXBP1, 100 nM | 77.7 ± 7.4
sgRNA knockout: sgXBP1, 1000 nM | 79.9 ± 10
sgRNA knockout: sgXBP1, 10000 nM | 25.3 ± 7.5
